In paper PMC12374821 one finds binding data, which are given here for three molecules.

Amino acid sequences for entries named in this document (tags omitted).
UniProt P61073: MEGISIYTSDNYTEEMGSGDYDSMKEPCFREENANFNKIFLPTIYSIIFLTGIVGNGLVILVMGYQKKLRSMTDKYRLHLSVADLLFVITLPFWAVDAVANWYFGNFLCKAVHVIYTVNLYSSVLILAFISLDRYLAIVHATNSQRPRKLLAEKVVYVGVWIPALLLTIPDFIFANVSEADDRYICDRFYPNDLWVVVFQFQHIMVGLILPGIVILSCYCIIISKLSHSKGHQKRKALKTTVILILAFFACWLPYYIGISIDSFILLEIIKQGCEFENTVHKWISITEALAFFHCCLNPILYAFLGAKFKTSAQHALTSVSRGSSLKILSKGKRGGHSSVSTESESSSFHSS

These are yes or no findings as the source states them, for the method shown. In cells and extracts the contact can be indirect. Some binding calls cover weakened binding; strength is not graded here.

Test [1] concerns the target T1, Polo-like kinase 4 (PLK4), endogenous (human (endogenous in SK-N-SH and IMR-32)) (UniProt O00444).
T1 sequence: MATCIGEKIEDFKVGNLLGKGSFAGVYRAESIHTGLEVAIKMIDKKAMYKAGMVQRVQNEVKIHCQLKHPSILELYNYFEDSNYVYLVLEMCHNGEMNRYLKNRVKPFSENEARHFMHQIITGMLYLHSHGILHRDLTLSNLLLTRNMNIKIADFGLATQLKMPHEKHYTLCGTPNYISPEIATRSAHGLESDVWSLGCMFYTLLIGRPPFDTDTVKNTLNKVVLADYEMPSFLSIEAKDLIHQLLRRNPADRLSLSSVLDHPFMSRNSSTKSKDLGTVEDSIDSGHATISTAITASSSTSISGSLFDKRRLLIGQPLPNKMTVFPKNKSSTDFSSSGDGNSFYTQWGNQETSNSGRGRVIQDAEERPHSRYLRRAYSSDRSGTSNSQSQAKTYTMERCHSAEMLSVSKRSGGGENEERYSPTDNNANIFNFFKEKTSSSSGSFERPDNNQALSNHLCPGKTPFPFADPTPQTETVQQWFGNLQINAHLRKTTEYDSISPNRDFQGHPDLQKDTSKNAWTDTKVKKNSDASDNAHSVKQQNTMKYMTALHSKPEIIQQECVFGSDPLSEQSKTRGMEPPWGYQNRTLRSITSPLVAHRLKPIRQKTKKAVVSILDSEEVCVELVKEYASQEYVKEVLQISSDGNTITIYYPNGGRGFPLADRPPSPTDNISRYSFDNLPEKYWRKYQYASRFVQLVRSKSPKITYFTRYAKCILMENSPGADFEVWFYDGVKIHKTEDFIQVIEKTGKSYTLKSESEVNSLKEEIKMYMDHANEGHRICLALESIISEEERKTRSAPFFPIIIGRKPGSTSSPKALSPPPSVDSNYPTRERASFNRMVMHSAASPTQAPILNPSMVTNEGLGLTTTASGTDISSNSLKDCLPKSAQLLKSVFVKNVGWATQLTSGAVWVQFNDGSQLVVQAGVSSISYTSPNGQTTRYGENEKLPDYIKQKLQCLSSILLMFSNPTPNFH
The test is described as follows: co-IP; lysates of SK-N-SH and IMR-32 cells, endogenous proteins; primary antibody overnight at 4°C, protein A/G Dynabeads, normal IgG as control; co-IP and reciprocal co-IP, western blot.

The target in test [2] is C-X-C chemokine receptor type 4 (CXCR4), endogenous (human (endogenous in SK-N-SH, IMR-32 and SH-SY5Y)) (UniProt P61073). The description is as above.
The target is the same in test [3]. Briefly: co-IP; lysates of SH-SY5Y cells overexpressing PLK4; primary antibody overnight at 4°C, protein A/G Dynabeads, normal IgG as control; western blot. (A western blot detects proteins with antibodies after separation by electrophoresis.)

“C-X-C chemokine receptor type 4 (CXCR4), endogenous (from UniProt P61073 1-352)”: the binding result in test [1] is recorded as “binds”.

B1: Polo-like kinase 4 (PLK4), endogenous (protein, UniProt O00444 1-970)
chain: T1 sequence
With B1, the binding result in test [2] was “binds”.

B2: PLK4, overexpressed (exogenous) in SH-SY5Y cells (protein, UniProt O00444 1-970)
chain: T1 sequence
Regarding B2, the binding result in test [3] is listed as “binds”.
